Assay results: the supplement of paper PMC7125110
± gives the standard error. The uncertainty is large for many entries.

B1: glmS ribozyme (parent)
chain: AUAAAAGCGCCAGAACUACAGAAAUGUAGUUGACGAGGAGGAGGUUUAUCGAAUUUUCGGCGGAUGCCUCCAAA

Variants of: B1
Assay: KM; higher = weaker cofactor use; RNA array
Settings: with glucosamine-6-phosphate
In short: (§1)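 Tiles bearing barcoded ribozyme variants, transcribed in situ by E. coli RNA polymerase on sequenced MiSeq chips, were imaged over ~14 h at 37 °C using a hybridised Cy3 probe. Glucosamine-6-phosphate was supplied at 40 μM to 10 mM in HEPES/KCl/Mg(OAc)2 buffer. kobs came from one- or two-exponential decay fits to normalised per-tile medians, and weighted Michaelis–Menten fits then provided kcat and KM.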

Row | Variant | KM
1 | C16U G40C | 1020 ± 220 µM
2 | C16A G29C | 1940 ± 970 µM
3 | G44U U47C | 20700 ± 17000 µM
4 | U57A C71U | 13700 ± 9500 µM
5 | A12C G29A | 2420 ± 1400 µM
6 | C16A U69C | 317 ± 290 µM
7 | A39U U45A | 1320 ± 950 µM
8 | A12U C50A | 1660 ± 130 µM
9 | G9A | 5140 ± 880 µM
10 | A15U A39C | 1960 ± 980 µM
11 | C16A G63A | 14.8 ± 14 µM
12 | C11U U45C | 1980 ± 1300 µM
13 | A12U U46C | 2700 ± 520 µM
14 | G13U C58G | 5540 ± 4700 µM
15 | A12C A15U | 1430 ± 600 µM
16 | A14U G32A | 3720 ± 1400 µM
17 | C10U U47C | 98.5 ± 57 µM
18 | G29A A39G | 893 ± 750 µM
19 | A12C A14C | 6190 ± 2800 µM
20 | G40U U45A | 1030 ± 420 µM
21 | A15G C67G | 2600 ± 330 µM
22 | G29U G41A | 1480 ± 620 µM
23 | A39U C58G | 9290 ± 520 µM
24 | A42G U55A | 2030 ± 1900 µM
25 | U45A C70G | 1100 ± 980 µM

Row | Variant | KM
26 | C11U A14U | 2130 ± 810 µM
27 | G29A A39U A42U | 3000 ± 790 µM
28 | C8A C61U G66A | 17.8 ± 11 µM
29 | G9U C71U | 403 ± 220 µM
30 | G29A G40U | 1130 ± 630 µM
31 | G29U C68U | 1710 ± 230 µM
32 | A6U A52G | 2490 ± 2400 µM
33 | A48U U54G C70U | 1760 ± 550 µM
34 | G13A U69C | 3190 ± 2300 µM
35 | C16U A42C | 253 ± 130 µM
36 | U45G C70U | 562 ± 260 µM
37 | C16U U56A | 1240 ± 1100 µM
38 | C11U A53C | 3780 ± 1300 µM
39 | G13A G32U | 3170 ± 600 µM
40 | C11G A12C | 3940 ± 2000 µM
41 | C10A G51U G63C | 731 ± 360 µM
42 | U30G U56A | 2730 ± 850 µM
43 | G29A U30A | 4350 ± 2400 µM
44 | C8G A12G | 32.5 ± 28 µM
45 | U57C C68U | 1210 ± 64 µM
46 | A12U | 1340 ± 230 µM
47 | A14C C58G | 5710 ± 4500 µM
48 | G13U G41A | 3540 ± 600 µM
49 | G32A C67A | 2730 ± 630 µM

An excerpt of these results, as labelled records.
G9U C71U
  KM = 403 ± 220 µM
G29A G40U
  KM = 1130 ± 630 µM
G29U C68U
  KM = 1710 ± 230 µM

Variants of: B1
Assay: kcat; higher = faster cleavage; RNA array
Settings: with glucosamine-6-phosphate
In short: as §1

Row | Variant | kcat
50 | C16A G29C | 0.00401 ± 0.0015 s⁻¹
51 | U30C C58U C67G C71A | 0.000162 ± 9.1e-05 s⁻¹
52 | G44U U47C | 5.22e-05 ± 2.9e-05 s⁻¹
53 | U57A C71U | 0.000912 ± 0.00051 s⁻¹
54 | C19A U54C C58A C68G | 5.03e-05 ± 4.1e-05 s⁻¹
55 | A39U U45A | 0.023 ± 0.013 s⁻¹
56 | G41A A48G | < 1e-05 s⁻¹
57 | A15U A39C | 0.00112 ± 0.00025 s⁻¹
58 | G59C C61G | < 1e-05 s⁻¹
59 | C61A C67U | 4.47e-05 ± 1.3e-05 s⁻¹
60 | A15G C71A | 0.00238 ± 0.0015 s⁻¹
61 | C58G A64G U65A G66U C67G U69C | 2.61e-05 ± 2e-05 s⁻¹
62 | A52C U57G U69G | 3.86e-05 ± 2.3e-05 s⁻¹
63 | G29A A39G | 0.0054 ± 0.0031 s⁻¹
64 | G40U U45A | 0.0022 ± 0.00057 s⁻¹
65 | G29U G41A | 0.000207 ± 3.7e-05 s⁻¹
66 | U30A C61A | < 1e-05 s⁻¹
67 | A39U C58G | 0.000106 ± 3.3e-06 s⁻¹

Row | Variant | kcat
68 | U55G G59C | 1.2e-05 ± 2.5e-06 s⁻¹
69 | G60C C70A | < 1e-05 s⁻¹
70 | A42G U55A | 0.0495 ± 0.04 s⁻¹
71 | C16A C34G C68G | 6.61e-05 ± 3.9e-05 s⁻¹
72 | U45A C70G | 0.000743 ± 0.0004 s⁻¹
73 | C50A C61U C70U | 3.88e-05 ± 1.2e-05 s⁻¹
74 | G29C C61G C67U | 2.09e-05 ± 1.3e-05 s⁻¹
75 | A48U U54G C70U | 0.000549 ± 9.5e-05 s⁻¹
76 | U45G C70U | 0.00681 ± 0.0021 s⁻¹
77 | C16U U56A | 0.00883 ± 0.0061 s⁻¹
78 | A33G C71G | 1.2e-05 ± 6.2e-06 s⁻¹
79 | U55A C67A | 0.00614 ± 0.0041 s⁻¹
80 | U30G U56A | 0.00811 ± 0.0019 s⁻¹
81 | U49A C50G C71U | 1.88e-05 ± 4.4e-06 s⁻¹
82 | U57C C68U | 6e-05 ± 5.6e-07 s⁻¹
83 | G41A A64U | 1.18e-05 ± 5.9e-06 s⁻¹
84 | U49G C61G | < 1e-05 s⁻¹
85 | G32A C67A | 0.000956 ± 0.00011 s⁻¹

Quoted at random: two entries already listed, in no set order.
Row | Variant | kcat
70 | A42G U55A | 0.0495 ± 0.04 s⁻¹
69 | G60C C70A | < 1e-05 s⁻¹

For reference, part of the list above.
Row | Variant | kcat
82 | U57C C68U | 6e-05 ± 5.6e-07 s⁻¹
83 | G41A A64U | 1.18e-05 ± 5.9e-06 s⁻¹

Variants of: B1
Assay: self-cleavage kobs at 40 uM GlcN6P; higher = faster cleavage; RNA array
Settings: with glucosamine-6-phosphate
In short: as §1

Row | Variant | self-cleavage kobs at 40 uM GlcN6P
86 | U30C C58U C67G C71A | 3.63e-05 ± 3.2e-05 s⁻¹
87 | C19A U54C C58A C68G | 2.84e-05 ± 1.8e-05 s⁻¹
88 | C16A U69C | 2.52e-05 ± 2.1e-05 s⁻¹
89 | A15G C67G | 1.32e-05 ± 7.8e-06 s⁻¹
90 | C11U A14U | 1.77e-05 ± 1.7e-05 s⁻¹
91 | G29A A39U A42U | 2.41e-05 ± 1.6e-05 s⁻¹
92 | A48U U54G C70U | 2.48e-05 ± 2.1e-05 s⁻¹
93 | C11U A53C | 1.71e-05 ± 1.7e-05 s⁻¹

Variants of: B1
Assay: self-cleavage kobs at 10000 uM GlcN6P; higher = faster cleavage; RNA array
Settings: with glucosamine-6-phosphate
In short: as §1

Row | Variant | self-cleavage kobs at 10000 uM GlcN6P
94 | C19A U54C C58A C68G | 1.94e-05 ± 1.7e-05 s⁻¹

Variants of: B1
Assay: self-cleavage kobs at 160 uM GlcN6P; higher = faster cleavage; RNA array
Settings: with glucosamine-6-phosphate
In short: as §1

Row | Variant | self-cleavage kobs at 160 uM GlcN6P
95 | C16A U69C | 2.93e-05 ± 1.9e-05 s⁻¹
96 | G13U C58G | 2.94e-05 ± 1.5e-05 s⁻¹
97 | U49A C50G C71U | 2.28e-05 ± 2.1e-05 s⁻¹

Variants of: B1
Assay: self-cleavage kobs at 2500 uM GlcN6P; higher = faster cleavage; RNA array
Settings: with glucosamine-6-phosphate
In short: as §1

Row | Variant | self-cleavage kobs at 2500 uM GlcN6P
98 | C58G A64G U65A G66U C67G U69C | 1.71e-05 ± 1.2e-05 s⁻¹
99 | C50A C61U C70U | 3.86e-05 ± 3e-05 s⁻¹
100 | U55A C67A | 0.00282 ± 0.0028 s⁻¹

Variants of: B1
Assay: self-cleavage kobs at 640 uM GlcN6P; higher = faster cleavage; RNA array
Settings: with glucosamine-6-phosphate
In short: as §1

Row | Variant | self-cleavage kobs at 640 uM GlcN6P
101 | C50A C61U C70U | 4.21e-05 ± 2.8e-05 s⁻¹
102 | U57C C68U | 2.13e-05 ± 1.4e-05 s⁻¹
